The values that follow come from paper PMC9703632, “The noncatalytic regions of the tyrosine kinase Tnk1 are important for activity and substrate specificity” (The Journal of Biological Chemistry, 2022).

Results are given in words; binding and its absence hold for the method and conditions named. Binding seen in cells or lysates may run through a third protein. Some entries that bind do so weakly or less than the wild type.

The target in the test is Human Tnk1 (thirty-eight negative kinase 1), wild type (human) (UniProt Q13470). As to the kind of experiment: co-IP; FLAG-tagged and SBP-tagged copies coexpressed in HEK293T; lysate (25 mM Tris pH 7.5, 1 mM EDTA, 100 mM NaCl, 1% Triton X-100) incubated with anti-FLAG resin 2 h at 4 °C, five washes; Western blot with FLAG and SBP antibodies. (Immunoblotting shows a protein as a band on a membrane.)

B1: Human Tnk1 (thirty-eight negative kinase 1), wild type (enzyme, UniProt Q13470-2 1-661)
chain: MLPEAGSLWLLKLLRDIQLAQFYWPILEELNVTRPEHFDFVKPEDLDGIGMGRPAQRRLSEALKRLRSGPKSKNWVYKILGGFAPEHKEPTLPSDSPRHLPEPEGGLKCLIPEGAVCRGELLGSGCFGVVHRGLWTLPSGKSVPVAVKSLRVGPEGPMGTELGDFLREVSVMMNLEHPHVLRLHGLVLGQPLQMVMELAPLGSLHARLTAPAPTPPLLVALLCLFLRQLAGAMAYLGARGLVHRDLATRNLLLASPRTIKVADFGLVRPLGGARGRYVMGGPRPIPYAWCAPESLRHGAFSSASDVWMFGVTLWEMFSGGEEPWAGVPPYLILQRLEDRARLPRPPLCSRALYSLALRCWAPHPADRPSFSHLEGLLQEAGPSEACCVRDVTEPGALRMETGDPITVIEGSPDSTIWKGQNGRTFKVGSFPASAVTLADAGGLPATRPVHRGTPARGDQHPGSIDGDRKKANLWDAPPARGQRRNMPLERMKGISRSLESVLSLGPRPTGGGSSPPEIRQARAVPQGPPGLPPRPPLSSSSPQPSQPSRERLPWPKRKPPHNHPMGMPGARKAAALSGGLLSDPELQRKIMEVELSVHGVTHQECQTALGATGGDVVSAIRNLKVDQLFHLSSRSRADCWRILEHYQWDLSAASRYVLARP
For the molecule B1, the binding result is reported as “binds”.
